Measured values reported in article PMC8844116.
These are yes or no findings as the source states them, for the method shown. In cells and extracts the contact can be indirect. For part of these data: Binding can be weak; no strength is given.

What was measured:
[1] = molecular target: T1, MEKK3, endogenous in mouse hippocampus (mouse (endogenous in hippocampus)) (UniProt Q61084); assay: co-IP; endogenous proteins of the hippocampus of db/db and db/m mice; groups db/m, db/db, corn oil; immunoprecipitation and immunoblot
T1 sequence: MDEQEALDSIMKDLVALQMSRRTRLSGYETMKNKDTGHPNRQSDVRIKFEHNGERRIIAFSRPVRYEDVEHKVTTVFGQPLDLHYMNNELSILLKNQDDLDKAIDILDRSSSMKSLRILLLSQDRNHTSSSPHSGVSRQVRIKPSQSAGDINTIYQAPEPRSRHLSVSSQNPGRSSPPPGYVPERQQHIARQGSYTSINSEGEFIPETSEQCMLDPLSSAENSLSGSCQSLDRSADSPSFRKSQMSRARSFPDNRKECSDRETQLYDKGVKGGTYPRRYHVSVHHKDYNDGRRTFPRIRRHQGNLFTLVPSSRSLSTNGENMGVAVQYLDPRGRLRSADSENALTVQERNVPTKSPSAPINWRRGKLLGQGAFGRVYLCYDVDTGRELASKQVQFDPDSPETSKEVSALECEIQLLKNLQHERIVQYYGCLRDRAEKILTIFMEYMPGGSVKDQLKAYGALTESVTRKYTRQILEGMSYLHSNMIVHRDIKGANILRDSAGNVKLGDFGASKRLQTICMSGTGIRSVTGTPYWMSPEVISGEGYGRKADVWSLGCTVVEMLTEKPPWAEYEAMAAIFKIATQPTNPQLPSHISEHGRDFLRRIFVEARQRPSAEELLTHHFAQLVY

[2] = molecular target: T1, MEKK3, endogenous in mouse hippocampus (mouse (endogenous in hippocampus)); assay: co-IP; endogenous proteins of the hippocampus of C57BL/6 mice with high fat diet and STZ-induced diabetes and of control mice; groups Con, DM, FPS-ZM1 1.0 mg/kg, corn oil; immunoprecipitation and immunoblot
[3] = molecular target: T1, MEKK3, endogenous in mouse hippocampus (mouse (endogenous in hippocampus)); assay: condition: only mice treated with FPS-ZM1 1.0 mg/kg; co-IP; endogenous proteins of the hippocampus of db/db mice treated with the RAGE antagonist FPS-ZM1 (1.0 mg/kg daily, 8 weeks); immunoprecipitation and immunoblot

## p38 mitogen-activated protein kinase, endogenous in mouse hippocampus (enzyme)
[1]
  binding: binds
[2]
  binding: binds
[3]
  binding: no binding
